Experimental data taken from patent US20150141274A1, “Methods and Compositions for Activity Dependent Transcriptome Profiling” (The Rockefeller University, priority 2012, published 2015).
At least one compound was matched to its structure with a doubt left.

Columns and labels:
[1] = tested on: K562 cells; assay: pS6 western blot in K562 cells treated with iron chelators; format: cell-based; settings: 24 hours, deferoxamine 30 μM, deferasirox 50 μM
[2] = tested on: pS6 and c-fos; format: in vivo, mouse; settings: intraperitoneal: cocaine 30 mg/kg 60 min, kainate 12.5 mg/kg 120 min, haloperidol 2 mg/kg 30 min, olanzapine 20 mg/kg 120 min, clozapine 10 mg/kg 45 min; ghrelin
Method: Wild-type male C57B6/J mice from Jackson laboratories were maintained on a 8 pm:8 am light-dark schedule and were 9-13 weeks old at the time of sacrifice. All dissections were performed between noon and 2 pm except as noted. For osmotic stimulation experiments, animals were given an intraperitoneal injection of 2M NaCl (350 μL), water was removed from the cage, and mice were sacrificed 120-140 min later. For fasting experiments, animals were transferred to a new cage without food at 5 pm and then sacrificed at 8 am the following morning. Control mice were fed ad libitum and sacrificed at the same time. For ghrelin experiments, animals were given an intraperitoneal injection of ghrelin (66 μg, Tocris), food was removed from the cage, and animals were dissected 70 min later. For scheduled feeding, animals were allowed access to food between noon and 3 pm each day, and then sacrificed between 1:45 and 2 pm after a minimum of 10 days on this schedule.

[3] = tested on: ribosomal proteins L7 and L26; assay: Total ribosome immunoprecipitation (anti-L7 and anti-L26) from NIH3T3 cells with or without rapamycin; format: cell-based; settings: NIH3T3 cells serum starved 4 h, rapamycin 30 min

In the case of `CC(=O)N(O)CCCCCNC(=O)CCC(=O)N(O)CCCCCNC(=O)CCC(=O)N(O)CCCCCN` [DFO, deferoxamine], the “phosphorylation of S6 at 235/236 and 240/244” value [1] is reported as “substantially reduced”.

For `O=C(O)c1ccc(-n2nc(-c3ccccc3O)nc2-c2ccccc2O)cc1` [DFS, deferasirox], the “phosphorylation of S6 at 235/236 and 240/244” value [1] was “substantially reduced”.

With `CN1CCN(C2=Nc3cc(Cl)ccc3Nc3ccccc32)CC1` [clozapine] the “co-localization of pS6 and c-fos in brain regions” value [2] was “induce co-localization of pS6 and c-fos”.

For `CO[C@H]1C[C@@H]2CC[C@@H](C)[C@@](O)(O2)C(=O)C(=O)N2CCCC[C@H]2C(=O)O[C@H]([C@H](C)C[C@@H]2CC[C@@H](O)[C@H](OC)C2)CC(=O)[C@H](C)/C=C(\C)[C@@H](O)[C@@H](OC)C(=O)[C@H](C)C[C@H](C)/C=C/C=C/C=C/1C` [rapamycin], the “ribosomal proteins recovered in total ribosome immunoprecipitation, presence or absence of rapamycin” value [3] was “equivalent amounts”.
